The other results are listed elsewhere or left out.
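Note: competitive chemoproteomic profiling in live THP-1 cells with an iodoacetamide desthiobiotin (IA-DTB) probe, comparing probe-labelled peptide intensities in compound-treated cells against DMSO-treated controls.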

Amino acid sequences for entries named in this document (tags omitted). A change or cut given only in a name is not applied to a line headed by its entry.
UniProt O95182, whole entry: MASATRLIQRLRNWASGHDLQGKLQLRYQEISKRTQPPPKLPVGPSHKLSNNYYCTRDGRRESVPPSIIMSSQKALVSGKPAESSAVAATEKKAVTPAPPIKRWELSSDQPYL
UniProt Q9Y618, whole entry, looked up: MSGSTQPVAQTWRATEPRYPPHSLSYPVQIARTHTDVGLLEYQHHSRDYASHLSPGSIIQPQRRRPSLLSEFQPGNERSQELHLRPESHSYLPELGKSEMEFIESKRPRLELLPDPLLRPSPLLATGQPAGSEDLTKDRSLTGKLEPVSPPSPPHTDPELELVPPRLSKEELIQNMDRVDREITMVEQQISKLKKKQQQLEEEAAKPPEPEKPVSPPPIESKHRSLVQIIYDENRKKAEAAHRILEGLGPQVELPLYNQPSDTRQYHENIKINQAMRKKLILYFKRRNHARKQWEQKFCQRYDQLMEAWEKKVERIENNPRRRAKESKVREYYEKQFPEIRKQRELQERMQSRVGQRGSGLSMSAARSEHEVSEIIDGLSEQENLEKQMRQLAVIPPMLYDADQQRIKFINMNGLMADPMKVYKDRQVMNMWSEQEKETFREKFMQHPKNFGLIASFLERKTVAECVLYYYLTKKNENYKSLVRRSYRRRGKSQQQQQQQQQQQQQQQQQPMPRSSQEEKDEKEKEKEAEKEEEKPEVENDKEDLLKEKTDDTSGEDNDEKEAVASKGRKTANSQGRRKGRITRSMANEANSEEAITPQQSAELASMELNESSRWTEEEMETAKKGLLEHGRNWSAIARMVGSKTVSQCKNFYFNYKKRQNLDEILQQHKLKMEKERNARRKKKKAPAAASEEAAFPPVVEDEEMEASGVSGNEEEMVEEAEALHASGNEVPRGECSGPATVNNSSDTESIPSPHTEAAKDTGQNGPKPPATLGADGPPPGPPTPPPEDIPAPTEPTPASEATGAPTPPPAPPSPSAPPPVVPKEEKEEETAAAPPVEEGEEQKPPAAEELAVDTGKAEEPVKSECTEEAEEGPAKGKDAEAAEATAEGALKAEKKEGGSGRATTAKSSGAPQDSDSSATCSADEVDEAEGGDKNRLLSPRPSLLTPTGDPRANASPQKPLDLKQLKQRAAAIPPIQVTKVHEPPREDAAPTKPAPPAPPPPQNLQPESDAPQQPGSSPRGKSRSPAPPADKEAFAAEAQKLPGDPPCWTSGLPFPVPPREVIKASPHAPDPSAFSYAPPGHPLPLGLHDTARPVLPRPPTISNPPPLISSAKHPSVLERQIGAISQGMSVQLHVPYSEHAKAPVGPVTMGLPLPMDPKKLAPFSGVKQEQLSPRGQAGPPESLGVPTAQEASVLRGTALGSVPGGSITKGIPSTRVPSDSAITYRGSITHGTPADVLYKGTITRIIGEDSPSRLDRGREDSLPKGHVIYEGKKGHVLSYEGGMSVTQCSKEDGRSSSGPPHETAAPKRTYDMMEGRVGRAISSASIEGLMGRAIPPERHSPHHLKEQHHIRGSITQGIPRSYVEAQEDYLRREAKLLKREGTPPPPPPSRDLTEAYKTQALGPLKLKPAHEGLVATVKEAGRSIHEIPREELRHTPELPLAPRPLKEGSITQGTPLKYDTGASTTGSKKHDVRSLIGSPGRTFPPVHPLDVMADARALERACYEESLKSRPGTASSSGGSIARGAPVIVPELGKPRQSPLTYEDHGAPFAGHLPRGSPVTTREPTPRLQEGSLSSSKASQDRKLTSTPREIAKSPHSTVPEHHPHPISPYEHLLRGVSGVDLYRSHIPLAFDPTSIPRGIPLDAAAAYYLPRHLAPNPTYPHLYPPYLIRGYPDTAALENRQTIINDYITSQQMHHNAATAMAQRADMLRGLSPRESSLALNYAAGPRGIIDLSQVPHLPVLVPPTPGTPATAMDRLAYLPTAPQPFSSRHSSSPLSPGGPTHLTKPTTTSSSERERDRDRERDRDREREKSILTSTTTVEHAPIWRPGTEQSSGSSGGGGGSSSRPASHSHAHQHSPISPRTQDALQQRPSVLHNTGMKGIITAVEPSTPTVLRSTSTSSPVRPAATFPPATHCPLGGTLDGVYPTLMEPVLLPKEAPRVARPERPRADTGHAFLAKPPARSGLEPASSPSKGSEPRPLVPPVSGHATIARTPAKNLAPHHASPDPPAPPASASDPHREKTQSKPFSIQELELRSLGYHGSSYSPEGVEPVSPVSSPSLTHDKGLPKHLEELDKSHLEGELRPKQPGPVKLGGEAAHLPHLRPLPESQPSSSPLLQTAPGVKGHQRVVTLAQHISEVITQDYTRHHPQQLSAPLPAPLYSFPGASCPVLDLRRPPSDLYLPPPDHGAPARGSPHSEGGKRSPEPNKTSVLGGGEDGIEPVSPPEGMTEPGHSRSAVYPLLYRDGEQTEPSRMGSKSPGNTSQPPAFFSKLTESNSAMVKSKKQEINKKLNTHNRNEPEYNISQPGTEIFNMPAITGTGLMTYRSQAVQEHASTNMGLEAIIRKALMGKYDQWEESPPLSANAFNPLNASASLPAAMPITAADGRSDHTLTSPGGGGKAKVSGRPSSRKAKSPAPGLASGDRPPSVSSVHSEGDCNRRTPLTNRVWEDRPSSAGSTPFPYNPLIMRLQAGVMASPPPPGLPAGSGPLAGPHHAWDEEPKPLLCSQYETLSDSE
UniProt Q12986: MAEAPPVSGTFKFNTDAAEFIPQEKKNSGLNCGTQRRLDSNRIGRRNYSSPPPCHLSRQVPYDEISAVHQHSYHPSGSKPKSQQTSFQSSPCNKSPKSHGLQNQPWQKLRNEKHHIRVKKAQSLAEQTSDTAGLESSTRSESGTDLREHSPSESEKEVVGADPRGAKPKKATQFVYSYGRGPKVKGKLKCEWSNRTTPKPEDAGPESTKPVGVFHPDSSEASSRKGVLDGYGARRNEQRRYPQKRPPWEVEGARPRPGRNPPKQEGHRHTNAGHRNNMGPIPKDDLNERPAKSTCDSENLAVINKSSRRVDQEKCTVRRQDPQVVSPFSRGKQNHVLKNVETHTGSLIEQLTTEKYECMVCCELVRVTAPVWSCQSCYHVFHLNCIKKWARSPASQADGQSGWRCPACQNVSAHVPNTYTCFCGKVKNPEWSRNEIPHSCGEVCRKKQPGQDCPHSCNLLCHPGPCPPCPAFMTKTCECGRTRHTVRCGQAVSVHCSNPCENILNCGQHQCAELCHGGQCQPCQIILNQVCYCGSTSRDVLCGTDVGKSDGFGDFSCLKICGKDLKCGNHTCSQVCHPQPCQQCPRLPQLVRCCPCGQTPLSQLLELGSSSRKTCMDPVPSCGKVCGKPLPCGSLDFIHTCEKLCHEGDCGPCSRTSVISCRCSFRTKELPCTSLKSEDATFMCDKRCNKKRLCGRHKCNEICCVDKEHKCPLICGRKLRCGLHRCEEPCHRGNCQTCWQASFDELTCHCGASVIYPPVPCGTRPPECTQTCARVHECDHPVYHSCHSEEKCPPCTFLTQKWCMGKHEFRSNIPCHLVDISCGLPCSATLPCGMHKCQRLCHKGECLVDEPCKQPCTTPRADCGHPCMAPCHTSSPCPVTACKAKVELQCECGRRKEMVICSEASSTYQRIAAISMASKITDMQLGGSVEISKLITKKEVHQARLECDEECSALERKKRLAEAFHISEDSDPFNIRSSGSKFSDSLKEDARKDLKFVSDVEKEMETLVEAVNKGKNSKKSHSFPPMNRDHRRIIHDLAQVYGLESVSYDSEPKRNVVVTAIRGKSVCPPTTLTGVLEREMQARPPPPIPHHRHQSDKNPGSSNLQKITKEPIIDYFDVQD
UniProt Q9HC98: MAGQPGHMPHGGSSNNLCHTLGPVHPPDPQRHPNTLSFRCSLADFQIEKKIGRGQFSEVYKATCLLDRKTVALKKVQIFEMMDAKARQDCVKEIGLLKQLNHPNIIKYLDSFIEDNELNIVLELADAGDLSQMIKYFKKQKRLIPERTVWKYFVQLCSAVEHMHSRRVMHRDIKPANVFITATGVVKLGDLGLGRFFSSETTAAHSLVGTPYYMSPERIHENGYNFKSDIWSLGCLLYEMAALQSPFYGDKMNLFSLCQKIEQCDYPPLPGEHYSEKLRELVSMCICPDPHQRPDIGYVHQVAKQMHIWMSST
UniProt O75376, whole entry, looked up: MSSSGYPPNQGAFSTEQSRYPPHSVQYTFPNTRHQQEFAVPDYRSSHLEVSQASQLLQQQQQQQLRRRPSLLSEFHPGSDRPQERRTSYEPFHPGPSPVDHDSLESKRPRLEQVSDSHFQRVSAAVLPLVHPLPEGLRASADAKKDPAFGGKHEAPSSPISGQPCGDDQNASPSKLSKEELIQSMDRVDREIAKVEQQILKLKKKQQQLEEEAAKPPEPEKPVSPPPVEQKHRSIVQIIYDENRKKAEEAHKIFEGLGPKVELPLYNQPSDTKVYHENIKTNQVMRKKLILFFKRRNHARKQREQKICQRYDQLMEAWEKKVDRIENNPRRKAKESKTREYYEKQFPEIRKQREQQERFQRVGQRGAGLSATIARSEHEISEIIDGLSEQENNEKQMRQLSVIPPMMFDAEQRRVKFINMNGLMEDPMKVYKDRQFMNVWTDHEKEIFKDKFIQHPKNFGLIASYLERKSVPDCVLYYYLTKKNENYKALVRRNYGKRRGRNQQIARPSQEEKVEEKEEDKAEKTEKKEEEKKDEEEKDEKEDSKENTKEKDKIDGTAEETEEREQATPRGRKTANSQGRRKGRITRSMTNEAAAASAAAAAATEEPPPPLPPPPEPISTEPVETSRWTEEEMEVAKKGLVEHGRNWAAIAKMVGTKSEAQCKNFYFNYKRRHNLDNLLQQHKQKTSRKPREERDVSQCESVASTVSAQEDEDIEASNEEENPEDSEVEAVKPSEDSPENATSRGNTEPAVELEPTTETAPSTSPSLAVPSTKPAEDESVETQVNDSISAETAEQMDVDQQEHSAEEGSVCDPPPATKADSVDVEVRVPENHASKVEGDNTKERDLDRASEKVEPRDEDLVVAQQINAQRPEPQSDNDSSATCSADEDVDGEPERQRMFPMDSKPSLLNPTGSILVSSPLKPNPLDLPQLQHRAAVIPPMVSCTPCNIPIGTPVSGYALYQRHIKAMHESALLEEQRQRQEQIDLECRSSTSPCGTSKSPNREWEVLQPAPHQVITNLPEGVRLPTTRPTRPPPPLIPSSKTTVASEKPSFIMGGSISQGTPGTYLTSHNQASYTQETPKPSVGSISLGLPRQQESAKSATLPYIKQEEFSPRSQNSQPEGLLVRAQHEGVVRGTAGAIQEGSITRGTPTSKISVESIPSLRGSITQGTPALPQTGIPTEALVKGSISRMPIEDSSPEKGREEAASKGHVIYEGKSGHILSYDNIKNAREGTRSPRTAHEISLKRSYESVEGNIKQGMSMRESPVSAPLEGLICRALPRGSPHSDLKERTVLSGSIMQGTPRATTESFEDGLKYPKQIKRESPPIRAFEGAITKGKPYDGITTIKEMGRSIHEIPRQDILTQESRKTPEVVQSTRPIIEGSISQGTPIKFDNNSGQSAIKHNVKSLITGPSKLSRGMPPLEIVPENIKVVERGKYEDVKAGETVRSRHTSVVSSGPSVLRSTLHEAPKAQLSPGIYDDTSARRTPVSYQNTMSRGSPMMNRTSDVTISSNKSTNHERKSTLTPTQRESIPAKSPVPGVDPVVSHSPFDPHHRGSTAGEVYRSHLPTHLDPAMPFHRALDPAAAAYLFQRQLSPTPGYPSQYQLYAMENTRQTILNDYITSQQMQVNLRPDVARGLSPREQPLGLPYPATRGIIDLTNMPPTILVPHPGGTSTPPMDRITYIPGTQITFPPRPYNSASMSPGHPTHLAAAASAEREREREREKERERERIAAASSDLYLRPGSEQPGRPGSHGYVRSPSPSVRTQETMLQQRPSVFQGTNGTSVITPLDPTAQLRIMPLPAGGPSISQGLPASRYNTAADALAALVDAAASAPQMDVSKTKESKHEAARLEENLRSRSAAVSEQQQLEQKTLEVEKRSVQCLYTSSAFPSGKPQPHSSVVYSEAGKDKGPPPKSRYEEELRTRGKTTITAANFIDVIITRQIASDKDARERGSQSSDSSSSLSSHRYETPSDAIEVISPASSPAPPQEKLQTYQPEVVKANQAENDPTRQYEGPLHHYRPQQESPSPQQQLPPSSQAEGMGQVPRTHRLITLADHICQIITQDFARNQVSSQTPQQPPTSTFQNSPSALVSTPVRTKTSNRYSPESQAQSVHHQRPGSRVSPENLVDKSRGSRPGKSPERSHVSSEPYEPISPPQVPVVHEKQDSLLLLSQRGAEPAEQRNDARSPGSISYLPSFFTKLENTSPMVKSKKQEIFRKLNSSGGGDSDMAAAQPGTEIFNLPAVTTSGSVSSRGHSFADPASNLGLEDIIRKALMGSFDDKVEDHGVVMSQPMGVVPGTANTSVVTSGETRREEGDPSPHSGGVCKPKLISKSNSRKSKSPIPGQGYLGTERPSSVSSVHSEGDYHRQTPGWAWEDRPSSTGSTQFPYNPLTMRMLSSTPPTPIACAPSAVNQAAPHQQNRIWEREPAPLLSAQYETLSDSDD

Compound in this assay: CC1Cc2ccccc2N1C(=O)C1CCCN(C1)C(=O)CCl (mixture of isomers) [TRIM25 ligand 11 (diastereomer mixture)]
The experiment in a line: probe-labelled cysteine peptide fold change vs DMSO (competition) (log2 fold change); higher = less target engagement (more negative = stronger competition). As to conditions: 50 µM; THP-1; incubation time: 4 h.
Turning to “NFKBIE_O00221_438_MLNGCTPLHLAAGR (UniProt O00221)”, the “probe-labelled cysteine peptide fold change” value was -0.0659.
For “NEU1_Q99519_218_LIVCGHGTLER (UniProt Q99519)” the value was -0.0493.
Next, “NDUFB10_O96000_119_EGQNYQQNCIK (UniProt O96000)”: -0.0614; “NDUFA10_O95299_253_CEVLQYSAR (UniProt O95299)”: -0.00882; “NCOA5_Q9HCD5_266_SCTVNIMFGTPQEHR (UniProt Q9HCD5)”: 0.267.
Turning to “NFKBIA_P25963_167_GNTPLHLACEQGCLASVGVLTQSCTTPHLHSILK (UniProt P25963)”, the “probe-labelled cysteine peptide fold change” value was -0.237.
“NDUFAF3_Q9BU61_150_GIAVEVQDTPNACATFNFLCHEGR (UniProt Q9BU61)”: the “probe-labelled cysteine peptide fold change” value stood at 0.159.
Next, “NEDD4_P46934-4_4_ATCAVEVFGLLEDEENSR (UniProt P46934)”: -0.509; “NEK7_Q8TDX7_146_YFVQLCSALEHMHSR (UniProt Q8TDX7)”: 0.00438; “NDUFA7_O95182_55_LSNNYYCTR (UniProt O95182)”: 0.0253.
For “NCOR2_Q9Y618_466_TVAECVLYYYLTK (UniProt Q9Y618)” the value was 0.221.
For “NDUFS1_P28331_367_VDSDTLCTEEVFPTAGAGTDLR (UniProt P28331)” the value was -0.394; for “NFX1_Q12986_615_TCMDPVPSCGK (UniProt Q12986)”, -0.238; for “NDRG1_Q92597_289_MADCGGLPQISQPAK (UniProt Q92597)”, -0.0335.
As for “NEK1_Q96PY6_276_FLSPQLIAEEFCLK (UniProt Q96PY6)”, the “probe-labelled cysteine peptide fold change” value is 0.161.
Next, “NEK9_Q8TD19_657_VSCGDEFTIAATDDNHIFAWGNGGNGR (UniProt Q8TD19)”: 0.0615; “NFKB2_Q00653_432_TPQCEPQAPEMLQR (UniProt Q00653)”: -0.194.
Next, “NEK6_Q9HC98_157_YFVQLCSAVEHMHSR (UniProt Q9HC98)”: -0.0704.
For “NFATC3_Q12968_6_TTANCGAHDELDFK (UniProt Q12968)” the value was -0.131; for “NDUFS1_P28331_727_AVTEGAQAVEEPSIC (UniProt P28331)”, -0.0365.
For “NEMF_O60524_575_YLTPGDIYVHADLHGATSCVIK (UniProt O60524)”, the “probe-labelled cysteine peptide fold change” value amounted to 0.13.
For “NDC1_Q9BTX1_9_ATAVSRPCAGR (UniProt Q9BTX1)”, the “probe-labelled cysteine peptide fold change” value was -0.136.
For “NIPSNAP2_O75323_93_ICQEVLPK (UniProt O75323)” the value was -0.255.
For “NCS1_P62166_38_DCPSGQLDAAGFQK (UniProt P62166)” the value was 0.217; for “NCOR1_O75376_474_SVPDCVLYYYLTK (UniProt O75376)”, 0.104; for “NIPBL_Q6KC79_573_QCNDAPVSVLQEDIVGSLK (UniProt Q6KC79)”, -0.268.
For “NGLY1_Q96IV0_283+286_EVEDHYCDACQFSNRFPR (UniProt Q96IV0)” the value was -0.135; for “NDRG3_Q9UGV2_30_NFQDFDCQEHDIETTHGVVHVTIR (UniProt Q9UGV2)”, 0.0549.
Turning to “NCOR1_O75376_2322_REEGDPSPHSGGVCKPK (UniProt O75376)”, the “probe-labelled cysteine peptide fold change” value is -0.16.
As to “NDUFB7_P17568_80_DSFPNFLACK (UniProt P17568)”, the “probe-labelled cysteine peptide fold change” value worked out at 0.0837.
Next, “NFX1_Q12986_951_LECDEECSALER (UniProt Q12986)”: 0.109; “NIT2_Q9NQR4_153_VGLGICYDMR (UniProt Q9NQR4)”: -1.18; “NELFCD_Q8IXH7_169_LAEAHPDCLMLNFTVK (UniProt Q8IXH7)”: -0.0159.
Next, “NCK2_O43639_343_VQLVDNVYCIGQR (UniProt O43639)”: 0.115; “NFRKB_Q6P4R8_17_MDSLDHMLTDPLELGPCGDGHGTR (UniProt Q6P4R8)”: -1.37.
Consider “NEK6_Q9HC98_258_MNLFSLCQK (UniProt Q9HC98)”, for which the “probe-labelled cysteine peptide fold change” value was found to be 0.258.
For “NFIX_Q14938_6_MYSPYCLTQDEFHPFIEALLPHVR (UniProt Q14938)” the value was -0.567; for “NIPBL_Q6KC79_1971_ACTQLVDNLVEHILK (UniProt Q6KC79)”, 0.0676; for “NCOR2_Q9Y618_1503_ACYEESLK (UniProt Q9Y618)”, 0.0659.
Next, “NDUFA5_Q16718_17_KTTGLVGLAVCNTPHER (UniProt Q16718)”: -0.321.

For the origin of these results see the supplement of paper PMC12067093, “Discovery and optimisation of a covalent ligand for TRIM25 and its application to targeted protein ubiquitination” (Chemical Science, 2025).
